Experimental data: PubChem BioAssay AID1671190 (National Center for Advancing Translational Sciences (NCATS), 2021)
“And” between values parts separate entries of the source, which are not always exact repeats. Identical values can stand only once. The campaign covered roughly 580,000 compounds. About 6,100 (1.1%) were called active. Inconclusive results, whose numbers are uncertain, are shown with a selection of clear calls. The call rests on the fitted dose curve; in most records, active means well fitted inhibition curve with a large enough effect; inconclusive means small, poorly fitted or top-dose-only effect, or another doubt; inactive means no such curve, though single readings can be large or run the other way. Potencies of inconclusive entries are doubtful fits and often do not repeat.
Potency means the concentration at half of the fitted maximal effect.

Protein sequences, listed by entry. Tags and fused reporters are not part of them. Lines headed by an entry give the natural chain unless they say otherwise; changes in a name come on top.
UniProt P18054: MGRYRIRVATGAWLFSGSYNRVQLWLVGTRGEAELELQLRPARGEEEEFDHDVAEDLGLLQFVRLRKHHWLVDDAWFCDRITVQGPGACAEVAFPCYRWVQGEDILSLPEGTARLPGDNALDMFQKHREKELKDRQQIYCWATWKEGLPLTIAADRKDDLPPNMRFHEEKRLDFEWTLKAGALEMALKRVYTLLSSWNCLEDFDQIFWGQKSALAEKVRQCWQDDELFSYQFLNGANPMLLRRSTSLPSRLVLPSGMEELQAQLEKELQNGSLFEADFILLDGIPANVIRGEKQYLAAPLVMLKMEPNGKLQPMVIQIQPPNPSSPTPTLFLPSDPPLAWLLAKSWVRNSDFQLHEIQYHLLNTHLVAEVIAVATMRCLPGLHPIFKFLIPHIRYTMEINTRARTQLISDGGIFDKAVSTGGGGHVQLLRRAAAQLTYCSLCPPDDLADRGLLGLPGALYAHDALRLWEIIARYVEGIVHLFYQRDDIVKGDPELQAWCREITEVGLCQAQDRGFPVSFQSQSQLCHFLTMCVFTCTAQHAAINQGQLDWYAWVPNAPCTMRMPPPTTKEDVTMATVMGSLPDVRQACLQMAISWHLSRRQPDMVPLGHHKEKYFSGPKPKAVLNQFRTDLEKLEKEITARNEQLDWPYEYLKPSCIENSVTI

These compounds were tested against Polyunsaturated fatty acid lipoxygenase ALOX12 (Homo sapiens) (UniProt P18054) (assay: Primary qHTS assay for inhibitors of human arachidonate 12S-lipoxygenase (ALOX12): Round 2). Conditions: purified 12hLO, xylenol orange hydroperoxide absorbance; series mostly up to 108 µM.
Summary of the method: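 Purified human 12hLO at 150 nM in 25 mM Hepes, 0.01% Triton X-100, pH 7.0, preincubated 15 min at room temperature with compound. Reaction started with 40 uM arachidonic acid, 30 min at room temperature. Hydroperoxide measured by Fe-xylenol orange, 573/405 nm absorbance ratio.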
With `O=C1NC(=S)N/C1=C\c1ccc(N2CCOCC2)cc1` the Potency was “inactive”.
With `N#CCC(=O)Nc1ccc(C(=O)Nc2cccc(S(N)(=O)=O)c2)cc1` the Potency was “inactive”.
For `Cc1ccc(S(=O)(=O)NNc2ccccc2)c(C)c1`, the Potency was inconclusive: 2.82 µM [inhibitor, full curve, poor fit].
`COc1ccccc1N1CCN(C2CCCN(S(=O)(=O)c3ccc(C)cc3)C2)CC1` (centres undefined) was tested, and the Potency was inconclusive: 126 µM [inhibitor, single point].
`COc1cc(CNCc2ccc(OC)cc2OC)cc(OC)c1` was tested, and the Potency was inconclusive: 0.447 µM [inhibitor, full curve, poor fit].
For `Cc1cc(/C=C2\SC(=S)NC2=O)c(C)n1-c1ccc(O)cc1`, the Potency was active: 28.2 µM.
For `O=C(CC[C@@H]1CNC(=O)[C@@H]2C[C@H](NCc3ccc(OC(F)(F)F)cc3)CN12)Nc1ccccc1`, the Potency was inconclusive: 39.8 µM [inhibitor, single point].
With `CN(C)Cc1nnc(C2CCCN(C(=O)CN(C)c3ccccc3)C2)n1C` (centres undefined) the Potency was inconclusive: 56.2 µM [inhibitor, partial curve, poor fit].
`Cn1ccnc1C(=O)c1ccc(NC(=O)C(=O)NC2CCCCC2)cc1` was tested, and the Potency was “inactive”.
With `CC(C)c1ccc2c(c1)CC[C@H]1[C@](C)(CN)CCC[C@]21C` the Potency was inconclusive: 31.6 µM [inhibitor, single point] and inconclusive: 35.5 µM [inhibitor, partial curve, poor fit].
`N#Cc1ccc[n+](CC(=O)c2ccc(Cl)cc2)c1` was tested, and the Potency was inconclusive: 12.6 µM [inhibitor, partial curve, poor fit].
In the case of `CC(C)S(=O)(=O)N1CCCC(c2cc(C(=O)Nc3ccc(F)c(Cl)c3)no2)C1` (centres undefined), the Potency is reported as inconclusive: 79.4 µM [inhibitor, single point].
With `CC1(C)[C@H](Cc2cc(-c3ccc(F)cc3)on2)C[C@@H]1NC1CCC1` the Potency was “inactive”.
With `O=C(O)CSc1nnc(COc2ccc(Br)cc2)n1-c1ccccc1` the Potency was inconclusive: 2.51 µM [inhibitor, full curve, poor fit].
`Cc1nnc(NC(=O)c2cc(-c3ccncc3)nc3c(C)cccc23)s1` was tested, and the Potency was inconclusive: 7.94 µM [inhibitor, full curve, poor fit].
In the case of `O=C(N1CCCC1)N1CCn2c(nnc2C2CCCN2)C1` (centres undefined), the Potency is reported as inconclusive: 1.12 µM [inhibitor, partial curve].
For `Cc1onc(-c2ccccc2)c1C(=O)OCC(=O)N(C)c1ccccc1`, the Potency was “inactive”.
In the case of `CC(=O)Nc1ccc(C(=O)Nc2nc(-c3cccnc3)cs2)cc1`, the Potency is reported as “inactive”.
With `COc1ccc(CNC(=O)C[C@@H]2c3nc(NC(=O)c4c(F)cccc4F)sc3C[C@@H]3[C@](C)(CO)[C@H](O)CC[C@]32C)cc1` the Potency was “inactive”.
